# Test results taken from publication PMC10163288.
# This is one part of the list.
# B1: il2ra_site1_3nfp_sap_25_mot_HHH_b1_04735_000000141_0001_19_38_H_._HHH_b1_07714_af2_0001_0000100005_0000001_0_0001_af2pred_0001_af2pred_swapped (protein)
# chain: SEAVELAREALKILPPRAKRLLSQVLAKLLREGDEEAMRELVEEVLELAKHDPREAEKFLEEILK
# B2: il2ra_site2_2erj_sap_20_mot_HHH_b1_04154_000000022_0001_1_15_H_._HHH_b1_05101_0001_0000300007_0000001_0_0001_af2pred_0001_af2pred (protein)
# chain: SSSSSSEEEEIVEELVEKFGLSEEQKELLEELAKLAHEAGYDEEVIRAVLERAARTLAELSSSSS
# B3: il2ra_site2_2erj_sap_27_mot_HHH_b1_03572_af2_000000102_0001_41_56_H_._HHH_b2_03105_0001_0000200007_0000001_0_0001 (protein)
# chain: SSSDNLHFIFEVAVRLMRLLQEGNEEEAEQLIKEAREFAEENGDELSRENLEEIFEHLKRASSSS
# B4: il2ra_site1_1z92_sap_14_mot_1581cc1c700002558836ca695aafbf97_0001_1_af2_000000099_0001_17_32_H_._d5167a162c519d043ddc16d89768c28c_0001_1_0001_0000200019_0000001 … (protein)
# chain: SSSSSDEERNARIVVRAIVRLAGLSEEDEEELRQIAKELVEEGVSWEEISRILEELVLGSSSSSS
# B5: il2ra_site2_3nfp_sap_19_mot_9cf93245260f2973e193b933f07ad219_0001_000000192_0001_54_65_H_._HHH_b2_06761_0001_0000300029_0000001_0_0001 (protein)
# chain: SSSSDEHHRVWELIHEAFELLRRGNPEEAEEVVREALEIARELGDEVARRSAEELLKAIEQSSSS
# B6: il2ra_site1_3nfp_normal_mot_HHH_b1_02681_af2_000000162_0001_42_56_H_._HHH_b2_02997_0001_0000500033_0000001_0 (protein)
# chain: SSSSDSVEIAKEVDELLRRIVKTDDDEEQRELERLVKELAEEANSPLAERLLRQLEELLNSSSSS
# B7: il2ra_site1_2b5i_normal_mot_HHH_b2_04353_af2_000000128_0001_1_17_H_._HHH_b2_00272_af2_0001_0000400018_0000001_0_af2pred_0001_af2pred_1 (protein)
# chain: SSSSSDEEEEVLELYREASRLWQNGDPEEARRVLEQALEIAEELNDERIAKDIEHILKLASSSSS
# B8: il2ra_site1_2b5i_sap_15_mot_HHH_b1_02715_000000105_0001_23_40_H_._9daacd37e3baa650618043516f9fc948_0001_af2_0001_0000300013_0000001_1_0001_af2pred_0001_af2pred_ … (protein)
# chain: SSSSDEAAEEAWELMREANELLRNGDPEEARKVLEEALELAERAGSKSLAKSIEVMLRLFESSSS
# B9: il2ra_site2_2erj_normal_mot_HHH_b1_04810_000000187_0001_1_15_H_._HHH_b1_06471_af2_0001_0000100004_0000001_0 (protein)
# chain: SSSSDEEERLKELEEQLEKLLEEGDEEELAEVLFELLELARQLQDDEAVRLAWRALRYILSSSSS
# B10: il2ra_site1_1z92_sap_21_mot_HHH_b2_00026_af2_000000137_0001_19_35_H_._HHH_b1_07606_0001_0000200013_0000001_0_0001_af2pred_0001_af2pred_1 (protein)
# chain: SREEQEEEVKEAAENNDPELLRELLELAERDAGDPRLATQFLVLLIARVLNIPPEEARKIVEEVK
# B11: il2ra_site2_2erj_normal_mot_HHH_b1_08162_af2_000000254_0001_40_56_H_._HHH_b2_07130_0001_0000100005_0000001_0 (protein)
# chain: SSSSDLEEEVERLLEEAKRLLEEGNPEEARKVLSRAFEIAYQLGNIELASEIIELAEKIVNSSSS
# B12: il2ra_site2_2erj_normal_mot_HHH_b2_06603_af2_000000059_0001_40_56_H_._HHH_b1_03372_0001_0000100007_0000001_0_af2pred_0001_af2pred (protein)
# chain: SSSSDEEELAELLNRIARALMRGDEEEVRELVERLRELAEELNDEEAERSVEFVERILKGSSSSS
# B13: il2ra_site1_3nfp_normal_mot_HHH_b1_01231_af2_000000170_0001_1_16_H_._HHH_b1_01231_0001_0000400032_0000001_0 (protein)
# chain: SSSSDEEARRLLQEALRLAFEGDAEEAERVLREAEEIAERDGNEALVKQIELALKAIERLLSSSS
# B14: il2ra_site1_2b5i_sap_16_mot_HHH_b1_01346_af2_000000027_0001_1_20_H_._HHH_b1_01815_0001_0000500021_0000001_0_0001_af2pred_dldesign_0_af2pred (protein)
# chain: SSSSDEKYDEVDRLFNEALKLKQAGKKEEAIKKLEEALELAKKLKDPKIIAELQTFLDWLKSSSS
# B15: il2ra_site2_2erj_normal_mot_6ec3e94b46d95805cdcdc10c0c108f03_0001_af2_000000040_0001_36_50_H_._HHH_b1_04625_0001_0000500028_0000001_0 (protein)
# chain: SSSSDEELKFAYEAANRLMHLISNGNPEEARELVEEAREELERLGNPELAEALEEHFRLLRSSSS
# B16: il2ra_site1_3nfp_normal_mot_HHH_b1_05162_af2_000000139_0001_1_18_H_._HHH_b1_01295_af2_0001_0000600036_0000001_0 (protein)
# chain: SSSSSNERREIQELIKEATELSHEGNPEEAQKVLERALELAEEFGDELARRFIEHLLKLLSSSSS
# B17: il2ra_site2_2erj_normal_mot_HHH_b1_07186_000000032_0001_43_57_H_._HHH_b1_08183_af2_0001_0000300017_0000001_0 (protein)
# chain: SSSSDEIEERLVELILELHELLKEGDEEEIERVLEEIEKLAKEANTPIFLRYAELAFKDSSSSSS
# B18: il2ra_site2_2erj_sap_16_mot_HHH_b2_06726_000000006_0001_1_16_H_._HHH_b1_02584_0001_0000700016_0000001_0_0001 (protein)
# chain: SSSSDEEELKELLKEAEELLENGNPEEAWEVLRRAATLAWELNDFELWSKIAELLREIARSSSSS
# Target: il2ra, P01589
# Test: yeast display titration
row,Binder,apparent Kd
1,B1,inactive: no binding seen
2,B2,inactive: no binding seen
3,B3,inactive: no binding seen
4,B4,inactive: no binding seen
5,B5,inactive: no binding seen
6,B6,inactive: > 139 nM
7,B7,inactive: no binding seen
8,B8,inactive: no binding seen
9,B9,inactive: no binding seen
10,B10,inactive: no binding seen
11,B11,inactive: no binding seen
12,B12,inactive: no binding seen
13,B13,inactive: no binding seen
14,B14,inactive: no binding seen
15,B15,inactive: no binding seen
16,B16,inactive: no binding seen
17,B17,inactive: no binding seen
18,B18,inactive: no binding seen

# Two entries drawn at random from those above:
row,Binder,apparent Kd
10,B10,inactive: no binding seen
12,B12,inactive: no binding seen
